For some of these results: No signal at the amounts used counts as a negative. At least one verdict rests on a figure or table, not on a statement of the authors. The exact form of at least one protein or probe is not confirmed. For some of these results: A weaker result is weaker than the reference pair of the same experiment. For some of these results: Protein sequences can lack the tags named with them.
How the values were obtained:
Assay in all cases: fluorescence polarization
ALKBH5 catalytic domain = ALKBH5 catalytic domain (UniProt Q6P6C2); settings: high-NaCl buffer, very weak signal, FP, 384-well, methyl readers at final NaCl 400 mM (DNMT1 assay), 300 mM (TET2), 250 mM (METTL3/14, ALKBH5), 10-15 min, DNMT1 and METTL3/14 binding in 20 mM HEPES pH 7.4, recombinant protein, residues 66-292, protein details: pET28a, label: 5'-FAM
METTL3 + METTL14 = settings: FP, 384-well, methyl readers at final NaCl 400 mM (DNMT1 assay), 300 mM (TET2), 250 mM (METTL3/14, ALKBH5), 10-15 min, DNMT1 and METTL3/14 binding in 20 mM HEPES pH 7.4, recombinant protein, label: 5'-FAM
MBD1 (1-105) = biological target: T1, MBD1 (1-105) (UniProt Q9UIS9); settings: preference for methylated DNA at 150 mM NaCl or above, judged insufficient for assay; 5mC at position 3 of top strand and position 9 of bottom strand; FP, 384-well; methyl readers at final NaCl 400 mM (DNMT1 assay), 300 mM (TET2), 250 mM (METTL3/14, ALKBH5), 10-15 min; DNMT1 and METTL3/14 binding in 20 mM HEPES pH 7.4; recombinant protein; residues 1-105; protein details: untagged; label: 5'-FAM top strand
T1 sequence (looked up): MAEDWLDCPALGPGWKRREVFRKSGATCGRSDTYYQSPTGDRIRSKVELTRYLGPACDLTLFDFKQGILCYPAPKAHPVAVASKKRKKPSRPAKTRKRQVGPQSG

The chains behind the UniProt entries cited, without tags or fusion partners. Residues count along the entry.
UniProt Q6P6C2, 66-292: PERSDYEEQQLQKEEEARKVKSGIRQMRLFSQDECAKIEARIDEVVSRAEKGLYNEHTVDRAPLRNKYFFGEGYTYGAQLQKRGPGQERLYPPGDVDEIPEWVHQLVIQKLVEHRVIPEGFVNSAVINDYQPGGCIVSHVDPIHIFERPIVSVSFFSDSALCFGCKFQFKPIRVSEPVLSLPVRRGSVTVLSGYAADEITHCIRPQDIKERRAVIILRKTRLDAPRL
UniProt P26358, 351-1600: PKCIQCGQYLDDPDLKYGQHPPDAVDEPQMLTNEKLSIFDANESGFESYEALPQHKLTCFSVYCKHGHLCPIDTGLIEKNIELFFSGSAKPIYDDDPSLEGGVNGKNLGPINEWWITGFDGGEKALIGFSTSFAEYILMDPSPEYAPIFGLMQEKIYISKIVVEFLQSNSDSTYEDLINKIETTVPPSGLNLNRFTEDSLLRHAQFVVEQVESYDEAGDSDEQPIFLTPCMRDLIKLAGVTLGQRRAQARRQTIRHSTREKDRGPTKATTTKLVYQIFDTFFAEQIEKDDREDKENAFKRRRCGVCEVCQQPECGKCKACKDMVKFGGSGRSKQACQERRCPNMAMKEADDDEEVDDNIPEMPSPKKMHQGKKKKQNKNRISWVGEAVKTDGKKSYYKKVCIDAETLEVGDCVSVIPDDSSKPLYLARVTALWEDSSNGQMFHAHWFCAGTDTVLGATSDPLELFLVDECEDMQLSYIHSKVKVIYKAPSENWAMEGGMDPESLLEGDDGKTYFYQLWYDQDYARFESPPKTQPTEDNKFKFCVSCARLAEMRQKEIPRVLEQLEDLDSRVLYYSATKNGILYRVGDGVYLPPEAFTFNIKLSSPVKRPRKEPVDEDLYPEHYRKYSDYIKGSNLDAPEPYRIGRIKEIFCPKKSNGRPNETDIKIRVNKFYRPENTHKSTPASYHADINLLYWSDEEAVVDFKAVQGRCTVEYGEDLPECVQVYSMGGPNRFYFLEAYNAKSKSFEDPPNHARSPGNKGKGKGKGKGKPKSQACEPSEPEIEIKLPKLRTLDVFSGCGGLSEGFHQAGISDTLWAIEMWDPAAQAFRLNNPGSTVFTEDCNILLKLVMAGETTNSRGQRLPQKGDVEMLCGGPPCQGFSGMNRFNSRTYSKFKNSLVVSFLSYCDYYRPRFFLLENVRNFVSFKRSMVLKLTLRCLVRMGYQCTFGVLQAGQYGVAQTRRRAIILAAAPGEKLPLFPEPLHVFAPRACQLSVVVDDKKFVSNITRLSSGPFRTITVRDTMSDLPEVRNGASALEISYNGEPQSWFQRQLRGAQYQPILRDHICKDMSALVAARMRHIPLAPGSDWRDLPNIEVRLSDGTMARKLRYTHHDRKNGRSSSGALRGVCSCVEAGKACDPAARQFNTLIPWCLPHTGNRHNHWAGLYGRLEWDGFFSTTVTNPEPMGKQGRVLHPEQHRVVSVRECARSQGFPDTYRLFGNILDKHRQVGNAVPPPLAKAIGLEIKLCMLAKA

DNMT1 (351-1600) (human) = DNMT1 (351-1600) (human) (UniProt P26358); settings: FP, 384-well, methyl readers at final NaCl 400 mM (DNMT1 assay), 300 mM (TET2), 250 mM (METTL3/14, ALKBH5), 10-15 min, DNMT1 and METTL3/14 binding in 20 mM HEPES pH 7.4, recombinant protein, residues 351-1600, protein details: N-terminal 6xHis, TEV site, label: 5'-FAM top …

GAACCGGACUGUCUUA [m6A-modified RNA]
binding result (ALKBH5 catalytic domain; m6A at position 8): binds more weakly
binding result (METTL3 + METTL14; 0 mM NaCl, m6A at position 8): binds
binding result (METTL3 + METTL14; 150 mM NaCl or higher, virtually no binding, m6A at position 8): no binding

GAACCGGACUGUCUUA [unmodified RNA]
binding result (ALKBH5 catalytic domain): binds more weakly
binding result (METTL3 + METTL14; 0 mM NaCl): binds
binding result (METTL3 + METTL14; 150 mM NaCl or higher, virtually no binding): no binding

TACGACCAGGAT (double strand) [fully-methylated DNA [M/M]]
binding result (MBD1 (1-105)): binds
binding result (DNMT1 (351-1600) (human); 0 mM NaCl, 5mC at position 3 of top strand and position 9 of bottom strand): binds
binding result (DNMT1 (351-1600) (human); 150 mM NaCl, virtually no binding, 5mC at position 3 of top strand and position 9 of bottom strand): no binding
binding result (DNMT1 (351-1600) (human); 400 mM NaCl, virtually no binding, 5mC at position 3 of top strand and position 9 of bottom strand): no binding

TACGACCAGGAT (double strand) [hemi-methylated DNA [M/C]]
binding result (DNMT1 (351-1600) (human); 0 mM NaCl, 5mC at position 3 of top strand): binds
binding result (DNMT1 (351-1600) (human); 150 mM NaCl, virtually no binding, 5mC at position 3 of top strand): no binding
binding result (DNMT1 (351-1600) (human); 400 mM NaCl, virtually no binding, 5mC at position 3 of top strand): no binding

From PMC8789064, “High-Throughput-Methyl-Reading (HTMR) assay: a solution based on nucleotide methyl-binding proteins enables large-scale screening for DNA/RNA methyltransferases and demethylases” (Nucleic Acids Research, 2021)
